Test results taken from US20200222537A1, “BIOPHOTONIC COMPOSITIONS AND USES THEREOF” (KLOX TECHNOLOGIES LIMITED, priority 2016, published 2020).
≈ marks a conversion by molar mass, not a printed value. Where “and” joins values, the source holds several entries; their conditions need not be identical. Equal entries are not always repeated.

How the values were obtained:
[1] = Absorbance peak (Flex Station II); type: physicochemical; settings: gel and liquid
Procedure: (§1) The compounds were dissolved in the solvents and at the concentrations indicated in Table 2 and the absorbance and emission peaks were measured (measured using a Flex Station II, Model 384 by Molecular Devices Comp.).

[2] = Emission peak (Flex Station II); type: physicochemical; settings: ex. 300 nm, gel
Procedure: as §1

physchem = settings: organic solvent or mixture

SMILES: CC(C)=CCCC1(C)C(CC=C(C)C)CC2(CC=C(C)C)C(=O)C(CC=C(C)C)=C(O)C1(C(=O)C(C)C)C2=O (stereo not drawn) [Hyperforin]
- Absorbance peak (nm) [1]: 300 nm (gel and
- Emission peak (nm) [2]: 375 nm and 750 nm
- solubility (physchem): 250 µg/mL (≈ 466 µM)
